# Reference: PubChem BioAssay AID274 (DTP/NCI, 2004)
# The list is a part of this screen's results and no random one: it gathers tests that were run many times, whatever their T/C, doses with no T/C, and many T/C values between a quarter and a half above the control. Other doses and runs of a compound stand elsewhere. T/C: endpoint of the treated group in % of that of the vehicle group. Some doses have a count of surviving animals in place of a T/C: the source files T/C as zero there, which appears to mark a toxic dose or a test without result, not a measured value. Some doses without a T/C left all or most animals alive at the check, yet need not have been tolerated: the source hardly ever lists a survival T/C far under the control, and the zero likely stands for such cases as well. Survivors were counted at the toxicity check, usually on the fifth day, unless a day is given; later deaths do not show. Schedules are NCI's codes, read here as Q, the interval in days (D) or hours (H), X, the number of doses. Some entries hold several experiments; the results are listed from low to high. For survival time, this PubChem deposit counts one and a half times the control or more as active, and values a quarter to a half above the control carry no call in these data; other NCI protocols may use other cut-offs.
# Tested on: BDF1 mice, Lewis lung carcinoma iv, survival T/C
# Experiment: NCI In Vivo Anticancer Drug Screen. Data for tumor model Lewis Lung Carcinoma (intravenous) in B6D2F1 (BDF1) mice
# Conditions: T/C endpoint: median survival time, schedule: Q01DX009 (ip), higher T/C = longer survival
# Experimental: The antitumor activity of compounds was measured in mice bearing transplantable tumors. Survival or tumor size were measured and the results are expressed as the measurement made in the treated group (T) divided by the measurement made in the vehicle treated control group (C). The tumor model used in this assay is Lewis Lung Carcinoma (intravenous) in B6D2F1 (BDF1) mice
# [1] = dose: 12.5 mg/kg/injection, vehicle: Klucel (hydroxypropylcellulose) (HPC)
# [2] = dose: 25.0 mg/kg/injection, vehicle: Klucel (hydroxypropylcellulose) (HPC)
# [3] = dose: 50.0 mg/kg/injection, vehicle: Klucel (hydroxypropylcellulose) (HPC)
# [4] = dose: 100.0 mg/kg/injection, vehicle: Klucel (hydroxypropylcellulose) (HPC)
# [5] = dose: 400.0 mg/kg/injection, vehicle: saline with Tween-80
# [6] = dose: 50.0 mg/kg/injection, vehicle: saline
# [7] = dose: 100.0 mg/kg/injection, vehicle: saline with Tween-80
# [8] = dose: 100.0 mg/kg/injection, vehicle: saline
# [9] = dose: 200.0 mg/kg/injection, vehicle: Klucel (hydroxypropylcellulose) (HPC)
# [10] = dose: 400.0 mg/kg/injection, vehicle: Klucel (hydroxypropylcellulose) (HPC)
# [11] = dose: 200.0 mg/kg/injection, vehicle: saline
# [12] = dose: 400.0 mg/kg/injection, vehicle: other
structure (smiles),measurement,setting,value
CCC(=O)OCC1OC(n2cnc3c(=S)nc(N)[nH]c32)C(OC(=O)CC)C1OC(=O)CC (configuration not stated),survivor count,[1],10 of 10
same,survivor count,[2],10 of 10
same,survivor count,[3],10 of 10
same,survivor count,[4],10 of 10
CC(=O)N(C)O,survivor count,[5],10 of 10
COc1cc2cc[n+](C)c(Cc3ccccc3)c2cc1OC,survivor count,"dose: 50.0 mg/kg/injection, vehicle: saline with Tween-80",8 of 10
same,T/C,[6],133 % of control
same,survivor count,[7],0 of 10
same,survivor count,[8],0 of 10
N[C@H](C(=O)O)[C@@H]1CC(Cl)=NO1,T/C,"dose: 0.5 mg/kg/injection, vehicle: saline",129 % of control
same,T/C,"dose: 1.0 mg/kg/injection, vehicle: saline",134 % of control
same,T/C,"dose: 2.0 mg/kg/injection, vehicle: saline",137 % of control
same,T/C,"dose: 4.0 mg/kg/injection, vehicle: saline",147 % of control
same,T/C,"dose: 8.0 mg/kg/injection, vehicle: saline",147 % of control
same,survivor count,"dose: 16.0 mg/kg/injection, vehicle: saline",10 of 10
Cc1oc2c(C)c3oc(=O)cc(C)c3cc2c1CCl,survivor count,[7],10 of 10
same,survivor count,"dose: 200.0 mg/kg/injection, vehicle: saline with Tween-80",1 of 10
same,survivor count,[5],1 of 10
O=c1[nH]c(=O)n([C@H]2CCCO2)cc1F,T/C,[9],126 % of control
same,survivor count,[10],10 of 10
CC(=O)OCC(=O)[C@@]12OC(C)(C)O[C@@H]1C[C@H]1[C@@H]3CC(C=O)=C4C=C(OCCCl)CC[C@]4(C)[C@@]3(F)[C@@H](O)C[C@@]12C,survivor count,"dose: 3.13 mg/kg/injection, vehicle: Klucel (hydroxypropylcellulose) (HPC)",10 of 10
same,survivor count,"dose: 6.25 mg/kg/injection, vehicle: Klucel (hydroxypropylcellulose) (HPC)",9 of 9
same,survivor count,[1],8 of 10
same,survivor count,[2],"9 of 10, 10 of 10, 9 of 9"
same,survivor count,[3],10 of 10
same,survivor count,[4],8 of 10 and 9 of 10
COc1cc2cc3cc4cc(OC)c(OC)cc4c(C)[n+]3cc2cc1OC (tested in a mixture with another compound),survivor count,[8],7 of 10
same,survivor count,[11],0 of 10
Clc1ccc2nnnn2n1,survivor count,[5],3 of 9
O=c1c(O)c(-c2cc(O)c(O)c(O)c2)oc2cc(O)cc(O)c12,survivor count,[12],9 of 10
OCCOCC(F)(F)F,survivor count,[6],10 of 10
same,survivor count,[8],10 of 10
same,survivor count,[11],10 of 10
CCO/C=C1\SC(=S)N(c2ccccc2C)C1=O,survivor count,[5],10 of 10
C=C(C)C(=O)OCC1CO1 (configuration not stated),survivor count,[9],6 of 10
CC1(C)COCN1COC1CCCCC1,survivor count,[11],0 of 10 and 10 of 10
same,survivor count,"dose: 400.0 mg/kg/injection, vehicle: saline",0 of 10 and 1 of 10
C/C=C/C=C/c1cc2cc3c(c(O)c2c(=O)[nH]1)C1(CC3)C(O)=c2c(=O)c3c(=O)cc(OC)c(=O)c=3c(=O)c2=C1O (configuration not stated),survivor count,"dose: 0.12 mg/kg/injection, vehicle: DMSO",9 of 10
same,survivor count,"dose: 0.5 mg/kg/injection, vehicle: DMSO",1 of 10
same,survivor count,"dose: 1.0 mg/kg/injection, vehicle: DMSO",0 of 10 and 8 of 10
same,survivor count,"dose: 2.0 mg/kg/injection, vehicle: DMSO",0 of 10 and 1 of 10
O=CC(O)C(O)C(O)C(O)C(=O)O.[NH-]C1CCCCC1[NH-].[Pt+2] (configuration not stated),T/C,"dose: 3.12 mg/kg/injection, vehicle: suspension in saline",125 % of control
Clc1cc(Cl)nc(N2CC2)n1,T/C,"dose: 1.25 mg/kg/injection, vehicle: saline",133 % of control
same,survivor count,"dose: 2.5 mg/kg/injection, vehicle: saline with Tween-80",7 of 10
same,survivor count,"dose: 2.5 mg/kg/injection, vehicle: saline",10 of 10
same,survivor count,"dose: 5.0 mg/kg/injection, vehicle: saline",5 of 9
same,survivor count,"dose: 10.0 mg/kg/injection, vehicle: saline with Tween-80",3 of 10
Cc1ccc(C2NC(=O)c3ccccc3N2)s1 (configuration not stated),survivor count,[2],10 of 10
same,survivor count,[3],10 of 10
same,survivor count,[4],10 of 10
same,survivor count,[9],10 of 10
same,survivor count,[10],10 of 10
Nc1ccn(C2OC(COP(=O)(O)O)C(O)C2O)c(=O)n1 (configuration not stated),survivor count,"dose: 64.0 mg/kg/injection, vehicle: saline",9 of 10
same,survivor count,"dose: 128.0 mg/kg/injection, vehicle: saline",10 of 10
CN(C)/N=N/c1nc[nH]c1C(N)=O,survivor count,[2],10 of 10
same,survivor count,[3],10 of 10
same,T/C,"dose: 64.0 mg/kg/injection, vehicle: Klucel (hydroxypropylcellulose) (HPC)",133 % of control
same,T/C,[4],126 % of control
same,survivor count,[4],9 of 10
same,survivor count,"dose: 512.0 mg/kg/injection, vehicle: Klucel (hydroxypropylcellulose) (HPC)",0 of 10
CCC1OCC(C(Cl)CCl)O1 (configuration not stated),survivor count,[10],1 of 10
CCCCCc1cc(O)c2c(c1)OC(C)(C)[C@@H]1CCC(C)=C[C@@H]21,survivor count,"dose: 25.0 mg/kg/injection, vehicle: other",10 of 10
same,survivor count,"dose: 50.0 mg/kg/injection, vehicle: other",10 of 10
same,survivor count,"dose: 100.0 mg/kg/injection, vehicle: other",10 of 10
same,survivor count,[12],10 of 10
NC(=O)c1cn(C2OC(CO)C(O)C2O)c2ncnc(N)c12 (configuration not stated),survivor count,"dose: 3.0 mg/kg/injection, vehicle: Klucel (hydroxypropylcellulose) (HPC)",9 of 10
CN(Cc1cnc2nc(N)nc(N)c2n1)c1c(Cl)cc(C(=O)NC(CCC(=O)O)C(=O)O)cc1Cl (configuration not stated),survivor count,[4],9 of 10
same,survivor count,[9],10 of 10
same,survivor count,[10],10 of 10
CC(=O)c1c(O)c(C)c(O)c2c1OC1=CC(=O)C(C(C)=O)C(=O)C12C (configuration not stated),survivor count,"dose: 12.5 mg/kg/injection, vehicle: gum acacia",10 of 10
same,survivor count,"dose: 25.0 mg/kg/injection, vehicle: gum acacia",10 of 10
same,survivor count,"dose: 100.0 mg/kg/injection, vehicle: gum acacia",10 of 10
same,survivor count,"dose: 200.0 mg/kg/injection, vehicle: gum acacia",10 of 10
Nc1nc2c(ncn2C2OC(CO)C(O)C2O)c(=O)[nH]1.Nc1nc2c(ncn2C2OC(CO)C(O)C2O)c(=O)[nH]1.[NH2-].[NH2-].[Pt+2] (configuration not stated),survivor count,"dose: 6.25 mg/kg/injection, vehicle: water",10 of 10
Cc1cc(N(CC(C)Br)CC(C)Br)ccc1N=Nc1ccccc1C(=O)O (configuration not stated),survivor count,"dose: 25.0 mg/kg/injection, vehicle: saline with Tween-80",10 of 10
CCCNC1=C(C)C(=O)C2=C(C1=O)[C@H](COC(N)=O)[C@]1(OC)[C@@H]3N[C@@H]3CN21,survivor count,"dose: 6.25 mg/kg/injection, vehicle: saline",10 of 10
same,survivor count,"dose: 12.5 mg/kg/injection, vehicle: saline",10 of 10
